## Screening data, single-dose tests

The chains behind the UniProt entries cited, without tags or fusion partners. Residues count along the entry.
UniProt Q4DA54, 1-478: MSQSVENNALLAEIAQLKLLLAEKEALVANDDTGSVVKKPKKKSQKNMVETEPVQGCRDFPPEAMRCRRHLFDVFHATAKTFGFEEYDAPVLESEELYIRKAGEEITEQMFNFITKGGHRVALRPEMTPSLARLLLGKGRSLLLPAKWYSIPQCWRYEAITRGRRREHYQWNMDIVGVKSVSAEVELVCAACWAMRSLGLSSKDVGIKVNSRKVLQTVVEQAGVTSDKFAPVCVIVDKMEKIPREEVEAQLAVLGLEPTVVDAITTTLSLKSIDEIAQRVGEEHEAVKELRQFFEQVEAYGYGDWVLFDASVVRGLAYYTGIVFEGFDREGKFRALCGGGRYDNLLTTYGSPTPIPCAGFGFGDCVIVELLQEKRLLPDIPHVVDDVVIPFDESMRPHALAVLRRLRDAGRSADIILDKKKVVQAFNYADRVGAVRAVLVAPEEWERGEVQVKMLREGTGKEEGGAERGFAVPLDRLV

The filed quantity is “Percent Effect” (%). The controls that fix the scale are not given in the record; negative values are as filed. The compounds are a random part of those screened.

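Enzyme assay of histidyl-tRNA synthetase; the read-out is not stated. Target: Histidine-tRNA ligase, Trypanosoma cruzi CL Brener (UniProt Q4DA54). Concentration: 30 µM. Direction is inferred from retests: higher values go with stronger inhibition. Of about 69,000 compounds tested this way, about 31 (0.045%) reached 50% or more in at least one test.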

{"smiles": "c1ncn(CC2CN(Cc3nc(-c4ccsc4)no3)CCO2)n1", "stereo": "stereo unspecified", "effect": 4.734}
{"smiles": "Cn1ncc2c1CCCN(C(=O)C1CC1)C2", "effect": 8.333}
{"smiles": "CC(C)CCN(C(=O)c1cc2c([nH]c1=O)CCCC2=O)C1CC1", "effect": 10.71}
{"smiles": "Cn1ccnc1CN1C(=O)CO[C@H]2CN(Cc3ccccc3O)C[C@H]21", "effect": 3.261}
{"smiles": "O=C(c1ccco1)N1CCN2C[C@H](OCc3cccnc3)C[C@H]2C1", "effect": 8.824}
{"smiles": "O=C(NCc1ccc2c(c1)CCCO2)c1cn2c(n1)CNCC2", "effect": 4.167}
{"smiles": "Cc1cc2nc(C(=O)NCc3cccnc3N(C)C)cc(C)n2n1", "effect": 5.366}
{"smiles": "NCCC1CN(c2nc(-c3ccccc3)nc3c2CCNC3)CCO1", "stereo": "stereo unspecified", "effect": 8.163}
{"smiles": "CN(C)[C@@H]1CO[C@H](CNC(=O)C2CCCC2)[C@H]1O", "effect": -3.261}
{"smiles": "CC(C)c1cc(C(=O)N2CCN(Cc3ccc(C#N)cc3)CC2)n[nH]1", "effect": 0}
{"smiles": "COc1ccccc1-c1cc(NC(=O)CC2CCS(=O)(=O)C2)[nH]n1", "stereo": "stereo unspecified", "effect": 10.97}
{"smiles": "O=C(c1cccc2cccnc12)N1CCCC(n2ccnc2)C1", "stereo": "stereo unspecified", "effect": 4.706}
{"smiles": "CC(C)N1CCC(Cc2cncc(-c3ccccc3C(=O)O)n2)CC1", "effect": -0.5464}
{"smiles": "CCOCC(=O)N1C[C@H]2CCC[C@@]2(COC)C1", "effect": 3.911}
{"smiles": "COC1CCN(C(=O)NCC(N)=O)CC(=O)N(C)c2ccccc21", "stereo": "stereo unspecified", "effect": 6.742}
{"smiles": "CC(C)C(C)N(C)Cc1nnc(-c2ccc(Br)s2)o1", "stereo": "stereo unspecified", "effect": 5.102}
{"smiles": "Cc1nc(C(C)C)sc1C(=O)NCCSc1nccn1C", "effect": 6.736}
{"smiles": "CC[C@H](Cn1ncc2ccccc2c1=O)NC(=O)c1ccccn1", "effect": 0}
{"smiles": "CN(C)C(=O)N1CCCC2(CCN(Cc3ccncc3)C2)C1", "stereo": "stereo unspecified", "effect": 3.743}
{"smiles": "CCS(=O)(=O)NC[C@]12COC[C@H]1CN(Cc1cccc(OC)c1)C2", "effect": 1.657}
{"smiles": "COc1ccc(F)c(NCC(C)(C)S(C)(=O)=O)c1", "effect": 3.279}
{"smiles": "O=C(Cc1cccs1)NCC1(O)CCSCC1", "effect": 3.333}
{"smiles": "CC(C)c1nc2c(n1C)CCN(CC(=O)NCc1ccccn1)C2", "effect": 3.896}
{"smiles": "CC(C)c1nc(S(=O)(=O)Nc2ccnn2C2CCCC2)c[nH]1", "effect": 3.061}
{"smiles": "Cc1cn[nH]c1C1COCCN1C(=O)c1ccc2c(c1)CCCC2", "stereo": "stereo unspecified", "effect": 1.429}
{"smiles": "Cc1cc(C2CCCN(C(=O)COc3ccc(F)cc3)C2)n[nH]1", "stereo": "stereo unspecified", "effect": 2.02}
{"smiles": "Cc1n[nH]c(C)c1CCCN(C)c1cc(N(C)C)ncn1", "effect": 4.386}
{"smiles": "CC(NC(=O)NCCCn1cncn1)c1ccncc1", "stereo": "stereo unspecified", "effect": 6.706}
{"smiles": "O=C(CN1CCCNC1=O)Nc1ccccc1SC(F)(F)F", "effect": 1.053}
{"smiles": "CC(=O)N1CCN(C(=O)CN2CCN(c3cccc(C)c3)CC2)CC1", "effect": 2.041}
{"smiles": "Cc1nc2ccccn2c1CC(=O)N[C@@H]1CC[C@@H](N2CCOCC2)[C@@H]1O", "effect": 8.209}
{"smiles": "O=C(Cc1ccccn1)N1CCC2(CC1)[C@H](O)C[C@@H]2O", "effect": 4.95}
{"smiles": "Cc1ncc2c(c1CNC(=O)C1(C)CC1)CCNC2", "effect": 2.809}
{"smiles": "COC(=O)NCC1CCC2(CCNCC2)O1", "stereo": "stereo unspecified", "effect": 6.796}
{"smiles": "Cc1cc(C(=O)N2CCCC(c3nccn3C)C2)cc(S(N)(=O)=O)c1C", "stereo": "stereo unspecified", "effect": 9.091}
{"smiles": "COCCC(Cc1cccc(Br)c1)C(=O)N(C)C", "stereo": "stereo unspecified", "effect": 4.124}
{"smiles": "Cc1cc2c(=O)n3c(nc2s1)CCN(C(=O)c1sc(C)nc1C)CC3", "effect": 4.494}
{"smiles": "c1ccc(CN2CCc3ncnc(C4CCOC4)c3CC2)nc1", "stereo": "stereo unspecified", "effect": 5.473}
{"smiles": "CC(C)Cc1noc(CN(C)c2cc(C(C)C)nc3ccnn23)n1", "effect": 0.8}
{"smiles": "CN(C)C(=O)c1n[nH]c2c1CCN(Cc1nccs1)C2", "effect": 6.522}
{"smiles": "CCOc1cc(C(=O)O)cc(-c2ccccc2)c1OC", "effect": 2.618}
{"smiles": "CCOc1ncccc1NC(=O)N1CCC(n2cncn2)CC1", "effect": 10.78}
{"smiles": "CC(C)N(C(=O)CCc1ccco1)C1CCOCC1", "effect": 12.71}
{"smiles": "CC(O)CN1CCC(CNCc2ccccc2OC(F)(F)F)CC1", "stereo": "stereo unspecified", "effect": -2.29}
{"smiles": "Cc1ccc(F)c(NS(=O)(=O)c2cc3c(c(C(=O)O)c2)OCCO3)c1", "effect": 1.156}

Some entries from above, unchanged:

{"smiles": "Cn1ccnc1CN1C(=O)CO[C@H]2CN(Cc3ccccc3O)C[C@H]21", "effect": 3.261}
{"smiles": "CC[C@H](Cn1ncc2ccccc2c1=O)NC(=O)c1ccccn1", "effect": 0}
{"smiles": "c1ncn(CC2CN(Cc3nc(-c4ccsc4)no3)CCO2)n1", "stereo": "stereo unspecified", "effect": 4.734}
{"smiles": "Cc1nc(C(C)C)sc1C(=O)NCCSc1nccn1C", "effect": 6.736}

From ChEMBL document CHEMBL3988442, “University of Dundee, Small-Polar-MMV Screening Library” (2021).